From US20030219793A1 come the findings set out here.

Results are given in words; binding and its absence hold for the method and conditions named. Some results given as binding are weak or reduced against the parent protein; the word gives no strength.

For test [1], the target named is T1, Zmax1 cytoplasmic domain bait (entire cytoplasmic domain and a portion of the transmembrane domain) (human) (UniProt O75197).
T1 sequence: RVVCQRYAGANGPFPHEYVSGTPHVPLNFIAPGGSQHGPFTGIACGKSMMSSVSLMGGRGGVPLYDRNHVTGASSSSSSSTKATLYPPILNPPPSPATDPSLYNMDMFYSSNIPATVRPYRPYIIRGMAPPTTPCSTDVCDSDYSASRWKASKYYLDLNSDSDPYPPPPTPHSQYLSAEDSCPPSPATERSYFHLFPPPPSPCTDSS
Put plainly: yeast two-hybrid screens of brain, HeLa and TE85 prey libraries.

The target of test [2] is T1, Zmax1 cytoplasmic domain bait (entire cytoplasmic domain and a portion of the transmembrane domain) (human). Put plainly: yeast two-hybrid screen, Zmax1 cytoplasmic domain as bait; listed in Table 6 (Yeast Two Hybrid Results).
For test [3] the target is unchanged. Put plainly: yeast two-hybrid screens.

As to Axin (from UniProt O15169 1-862), the binding result in test [1], in test [2] and in test [3] was “binds” throughout.
With “alpha-actinin (from UniProt P12814 1-892)”, the binding result in test [1], in test [2] and in test [3] was “binds” throughout.
“TRIO (GTPase) (from UniProt O75962 60-3097)”: the binding entry in test [2] and in test [3] was “binds” in each case.
In the case of “cytosolic thyroid hormone-binding protein (from UniProt P14618 1-531)”, the binding result in test [1] and in test [2] was “binds” each time.

B1: Zyxin (protein, not shown: large carriers)
chain: MAAPRPSPAISVSVSAPAFYAPQKKFGPVVAPKPKVNPFRPGDSEPPPAPGAQRAQMGRVGEIPPPPPEDFPLPPPPLAGDGDDAEGALGGAFPPPPPPIEESFPPAPLEEEIFPSPPPPPEEEGGPEAPIPPPPQPREKVSSIDLEIDSLSSLLDDMTKNDPFKARVSSGYVPPPVATPFSSKSSTKPAAGGTAPLPPWKSPSSSQPLPQVPAPAQSQTQFHVQPQPQPKPQVQLHVQSQTQPVSLANTQPRGPPASSPAPAPKFSPVTPKFTPVASKFSPGAPGGSGSQPNQKLGHPEALSAGTGSPQPPSFTYAQQREKPRVQEKQHPVPPPAQNQNQVRSPGAPGPLTLKEVEELEQLTQQLMQDMEHPQRQNVAVNELCGRCHQPLARAQPAVRALGQLFHIACFTCHQCAQQLQGQQFYSLEGAPYCEGCYTDTLEKCNTCGEPITDRMLRATGKAYHPHCFTCVVCARPLEGTSFIVDQANRPHCVPDYHKQYAPRCSVCSEPIMPEPGRDETVRVVALDKNFHMKCYKCEDCGKPLSIEADDNGCFPLDGHVLCRKCHTARAQT
For the molecule B1, the binding entry in test [1], in test [2] and in test [3] was “binds” in each case.
